# Results are given in words; binding and its absence hold for the method and conditions named. A result given as binding can be weak or reduced; the word gives no strength.
# Biological target: T1, Guianensin (Simulium guianense) (UniProt F5GTK6)
# T1 sequence: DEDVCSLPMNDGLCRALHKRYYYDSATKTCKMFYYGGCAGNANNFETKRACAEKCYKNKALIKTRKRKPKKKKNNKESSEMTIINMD
# Test: SPR; Biacore T200; Guianensin immobilised at 1250 RU on a CM5 chip by amine coupling; binding analysis with all analytes at a single concentration of 100 nM; both purified
row,Substance,binding
1,bovine factor Xa (enzyme),binds
2,Gla-domainless factor Xa (human) (domain or fragment),binds
3,Factor X,no binding (tested: 100 nM)
4,mouse factor Xa (enzyme),binds
5,Kallikrein (enzyme),binds
6,human β-factor Xa (enzyme),binds
7,Plasmin (enzyme),binds

# Biological target: T1, Guianensin (Simulium guianense)
# Test: SPR; Biacore T200; Guianensin immobilised at 1250 RU on a CM5 chip by amine coupling; kinetic series of the analyte (500 nM starting concentration and six serial dilutions); contact 180 sec, 30 µl/min, dissociation 600 sec; global 1:1 model; both purified
row,Substance,binding
1,Kallikrein (enzyme),binds
2,Plasmin (enzyme),binds

# Reference: paper PMC10353047, “Guianensin, a Simulium guianense salivary protein, has broad anti-hemostatic and anti-inflammatory properties” (Frontiers in Immunology, 2023)
